The text below walks through data of patent publication US20020127541A1.

Sequences of proteins named here, by UniProt entry; tags and fusion partners are left off. Residues count along the entry.
UniProt P35222, residues 2-781: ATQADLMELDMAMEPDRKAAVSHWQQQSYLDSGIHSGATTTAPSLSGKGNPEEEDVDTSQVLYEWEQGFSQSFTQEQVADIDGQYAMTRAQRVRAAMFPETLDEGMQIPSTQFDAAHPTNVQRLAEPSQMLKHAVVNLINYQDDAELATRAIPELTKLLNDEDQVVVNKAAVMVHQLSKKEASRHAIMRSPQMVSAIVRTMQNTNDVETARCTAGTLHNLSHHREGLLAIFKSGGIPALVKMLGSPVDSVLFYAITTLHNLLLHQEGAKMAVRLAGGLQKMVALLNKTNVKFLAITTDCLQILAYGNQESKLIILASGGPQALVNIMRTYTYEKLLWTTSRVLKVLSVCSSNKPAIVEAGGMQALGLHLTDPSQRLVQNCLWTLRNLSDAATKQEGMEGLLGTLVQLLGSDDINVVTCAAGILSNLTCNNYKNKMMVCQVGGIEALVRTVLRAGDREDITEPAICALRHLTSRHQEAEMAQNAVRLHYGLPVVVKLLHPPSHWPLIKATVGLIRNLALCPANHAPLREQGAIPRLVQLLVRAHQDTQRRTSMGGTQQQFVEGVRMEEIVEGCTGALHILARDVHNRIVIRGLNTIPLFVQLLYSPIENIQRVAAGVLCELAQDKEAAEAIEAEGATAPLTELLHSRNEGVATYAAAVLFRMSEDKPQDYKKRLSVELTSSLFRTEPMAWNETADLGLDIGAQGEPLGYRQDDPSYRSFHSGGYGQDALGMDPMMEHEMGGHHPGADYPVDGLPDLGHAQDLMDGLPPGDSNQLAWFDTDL

These are yes or no findings as the source states them, for the method shown. Binding seen in cells or lysates may run through a third protein. Some entries that bind do so weakly or less than the wild type.

The test concerns the target wild type PS2 (human) (UniProt P49810). Nature of the test: co-immunoprecipitation, Western blot. A general note: A western blot detects proteins with antibodies after separation by electrophoresis.

For the substance “endogenous β-catenin (from UniProt P35222 2-781)”, the binding entry is on record as “binds”.
